Assay results reported in patent publication EP0499162A2, “GM-CSF inhibiting oligopeptides” (Bristol-Myers Squibb Company, priority 1991, dated 1992).
Not every detail of the peptide structures is certain; ends, links or a residue may be inferred. Where no end group is shown, it is not given here.

Experiments:
GM-CSF = GM-CSF activity on bone marrow precursors (liquid culture, methylene blue dye absorbance of adherent granulocytes and macrophages); format: cell-based, murine
Procedure: To determine the effect of the desired inhibitory oligopeptide, the following assay, using murine bone marrow precursors, was developed. Of course, if using an oligopeptide derivable from a species other than murine, substitution of cells from that species into the assay procedure would be required.
The biological activity of GM-CSF was determined in a liquid culture system of murine bone marrow cells (see, e.g., I. Bursuker, et al., J. Reticuloendothelial Soc., 25, 533 (1979)). Bone marrow cells were collected from femurs and tibia of 10 to 12 week old CB6F1 (C57BLxBalb/c) male mice (Harlan-Sprague Dawley, Inc., Indianapolis, Indiana) by flushing dissected and clean bones with phosphate buffered saline ("PBS", GIBCO, Grand Island, New York). Viable cell count was determined using trypan blue. The cells then were plated (1 ml/well; 2 X 10^5 cells/ml) in 24-well tissue culture plates (Costar, Cambridge, MA). Granulocyte-macrophage colony stimulating factor ("GM-CSF"; 2 ng/ml; recombinantly produced and available from PeproTech, Inc., Rocky Hill, NJ) and the desired oligopeptide were added at the desired concentration to the wells. […] The dye absorbance was measured at 620 nm in a MCC/340 Titertech Multiscan plate reader (Eflab, Helsinki, Finland). The dye absorbance reading is proportional to the number of cells in the culture.

HT-2 cells = assay: 3H-Thymidine incorporation assay, proliferation of a GM-CSF dependent transformed cell line; format: cell-based, murine; conditions: 3H-thymidine incorporation (Table 2)

“DDMPVTLNEEVE [Oligopeptide P44-55, Asp Asp Met Pro Val Thr Leu Asn Glu Glu Val Glu]” was tested, and the “inhibition of the biological activity of GM-CSF” value (GM-CSF; oligopeptide at a concentration of 10 mg/ml, GM-CSF 2 ng/ml, murine bone marrow cells, 6 days culture (Table 1)) was “completely inhibits”, the “inhibitory effect on GM-CSF-induced granulocyte macrophage formation” value (GM-CSF; within the range of about 1 µg/ml to about 10 µg/ml (Figure 2)) was “dose-dependent” and the “inhibition of GM-CSF induced proliferation of the murine tumor line” value (HT-2 cells) was “inhibits, in a dose-dependent manner”.
